Results are given in words; binding and its absence hold for the method and conditions named. Binding calls can cover weak binding; strength is not graded here.
Target: αvβ1 integrin on CHO cell line B2/v7
Test: cell attachment to peptide coated on plastic

binding: binds
Binder: GACRRETAWACGA (disulfide bond between the two cysteines (cyclic)) [cyclic peptide …]

From patent US7067619
